Measurements taken from paper PMC6995195.
These are yes or no findings as the source states them, for the method shown. In cells and extracts the contact can be indirect. Some binding calls cover weakened binding; strength is not graded here. For some of these results: Sequences can lack the tags named with a protein.

Protein sequences, listed by entry. Tags and fused reporters are not part of them.
UniProt P49915: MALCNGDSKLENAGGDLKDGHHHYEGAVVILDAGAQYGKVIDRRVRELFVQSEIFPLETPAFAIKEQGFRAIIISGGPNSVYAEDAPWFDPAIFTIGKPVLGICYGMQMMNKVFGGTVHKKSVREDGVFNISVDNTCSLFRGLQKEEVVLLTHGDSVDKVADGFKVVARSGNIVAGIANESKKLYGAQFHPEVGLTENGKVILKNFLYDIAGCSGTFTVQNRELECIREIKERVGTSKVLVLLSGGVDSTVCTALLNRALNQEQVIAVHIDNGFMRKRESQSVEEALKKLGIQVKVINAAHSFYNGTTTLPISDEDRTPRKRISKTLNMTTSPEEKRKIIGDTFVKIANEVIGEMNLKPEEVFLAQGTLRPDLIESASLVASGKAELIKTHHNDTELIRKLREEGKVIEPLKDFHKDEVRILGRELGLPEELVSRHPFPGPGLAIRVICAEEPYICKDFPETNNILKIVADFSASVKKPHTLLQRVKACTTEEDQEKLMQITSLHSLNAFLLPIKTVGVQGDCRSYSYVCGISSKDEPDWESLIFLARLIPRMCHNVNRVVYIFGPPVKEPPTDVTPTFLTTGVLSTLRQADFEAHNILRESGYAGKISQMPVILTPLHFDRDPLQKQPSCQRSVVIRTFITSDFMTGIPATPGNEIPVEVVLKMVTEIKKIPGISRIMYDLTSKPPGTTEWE
UniProt Q93009: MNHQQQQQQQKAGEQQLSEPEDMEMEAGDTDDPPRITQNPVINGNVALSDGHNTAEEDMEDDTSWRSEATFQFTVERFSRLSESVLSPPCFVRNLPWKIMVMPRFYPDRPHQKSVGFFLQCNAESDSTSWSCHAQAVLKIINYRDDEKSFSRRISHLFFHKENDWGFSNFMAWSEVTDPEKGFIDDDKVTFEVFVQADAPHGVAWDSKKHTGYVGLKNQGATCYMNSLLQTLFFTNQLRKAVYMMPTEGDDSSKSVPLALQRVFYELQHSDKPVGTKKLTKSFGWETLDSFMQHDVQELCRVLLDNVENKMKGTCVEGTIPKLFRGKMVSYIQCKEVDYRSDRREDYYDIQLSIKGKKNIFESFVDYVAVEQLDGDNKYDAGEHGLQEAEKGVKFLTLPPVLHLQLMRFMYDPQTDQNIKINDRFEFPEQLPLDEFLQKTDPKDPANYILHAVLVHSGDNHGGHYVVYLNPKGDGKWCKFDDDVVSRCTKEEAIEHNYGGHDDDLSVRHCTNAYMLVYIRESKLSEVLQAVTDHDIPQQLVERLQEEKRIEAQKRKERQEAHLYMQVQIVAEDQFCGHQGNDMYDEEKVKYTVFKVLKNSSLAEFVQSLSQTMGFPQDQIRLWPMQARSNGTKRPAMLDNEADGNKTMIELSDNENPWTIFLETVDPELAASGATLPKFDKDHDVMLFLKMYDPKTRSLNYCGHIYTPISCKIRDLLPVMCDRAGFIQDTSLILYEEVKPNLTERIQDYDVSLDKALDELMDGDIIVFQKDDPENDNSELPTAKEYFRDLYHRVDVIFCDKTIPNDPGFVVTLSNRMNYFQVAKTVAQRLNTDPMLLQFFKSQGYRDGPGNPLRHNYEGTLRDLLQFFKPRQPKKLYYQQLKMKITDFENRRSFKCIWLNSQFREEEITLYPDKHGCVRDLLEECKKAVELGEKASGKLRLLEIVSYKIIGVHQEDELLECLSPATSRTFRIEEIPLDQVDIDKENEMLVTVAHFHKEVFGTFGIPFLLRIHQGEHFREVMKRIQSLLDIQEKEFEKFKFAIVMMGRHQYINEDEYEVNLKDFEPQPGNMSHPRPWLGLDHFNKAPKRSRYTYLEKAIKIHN

Legend:
[1] = biological target: T1, SERPINB5–HA (serpin family B member 5, HA-tagged) (UniProt P36952); assay: co-IP; NPC cells (HONE1) with ectopic expression of SERPINB5, TRIM21 or GMPS, MG132 10 μM for 24 h; lysate incubated with tag antibody (anti-FLAG, anti-MYC or anti-HA) at 4 °C overnight, protein A/G agarose, western blot; cells with or without X-ray radiation (6 Gy); some panels in TRIM21 LOF or SERPINB5 LOF (CRISPR knockout) cells
T1 sequence: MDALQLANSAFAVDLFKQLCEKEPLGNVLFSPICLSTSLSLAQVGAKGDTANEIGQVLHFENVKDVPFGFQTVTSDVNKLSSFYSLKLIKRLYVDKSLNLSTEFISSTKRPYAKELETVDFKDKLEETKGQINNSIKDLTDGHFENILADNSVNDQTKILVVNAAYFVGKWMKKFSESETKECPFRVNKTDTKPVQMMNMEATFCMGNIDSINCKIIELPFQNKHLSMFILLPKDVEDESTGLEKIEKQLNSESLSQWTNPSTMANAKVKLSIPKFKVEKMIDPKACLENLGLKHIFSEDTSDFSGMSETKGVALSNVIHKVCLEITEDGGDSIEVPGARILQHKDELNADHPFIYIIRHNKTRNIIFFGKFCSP

[2] = biological target: GMPS–FLAG (guanine monophosphate synthase, FLAG-tagged) (UniProt P49915); assay: as above

Substance | binding [1] | binding [2]
GMPS–FLAG (guanine monophosphate synthase, FLAG-tagged) (from UniProt P49915 1-693) | binds | 
USP7, endogenous (from UniProt Q93009 1-1102) |  | binds
TP53, endogenous (from UniProt P04637 1-393) |  | binds
GMPS (guanine monophosphate synthase), endogenous (from UniProt P49915 1-693) | binds | 
